Consider 1 substance from PMC9231133.

Protein sequences, listed by entry. Tags and fused reporters are not part of them. Residues count along the entry.
UniProt Q13153, residues 70-117: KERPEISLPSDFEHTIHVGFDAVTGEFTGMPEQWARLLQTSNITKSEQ
UniProt P60953: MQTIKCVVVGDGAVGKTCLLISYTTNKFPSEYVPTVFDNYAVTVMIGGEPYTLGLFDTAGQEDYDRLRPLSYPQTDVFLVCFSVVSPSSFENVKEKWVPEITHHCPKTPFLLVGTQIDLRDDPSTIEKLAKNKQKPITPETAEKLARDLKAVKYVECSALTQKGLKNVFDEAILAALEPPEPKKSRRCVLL

These are yes or no findings as the source states them, for the method shown. Binding seen in cells or lysates may run through a third protein. Some results given as binding are weak or reduced against the parent protein; the word gives no strength.

In assay [1] the target is PAK-PBD (pGEXTK-Pak-1 70-117) on glutathione beads (UniProt Q13153). In words: pull-down; only the target purified.
Assay [2] has the same target. Description: pull-down; control HaCaT lysates loaded with 200 µM GTP-gamma-S (150 mM EDTA, 15 min, room temperature, stopped with 600 mM MgCl2), then PAK-PBD glutathione beads for 1 h; Cdc42 western blot; only the target purified. Background: Immunoblotting shows a protein as a band on a membrane.

In the case of “Cdc42 GTPase (from UniProt P60953 1-191)”, the binding entry in assay [1] and in assay [2] was “binds” throughout.
